Results published in publication PMC7648797.
Results are given in words; binding and its absence hold for the method and conditions named. In cells and extracts the contact can be indirect. Some results given as binding are weak or reduced against the parent protein; the word gives no strength.

Protein sequences, listed by entry. Tags and fused reporters are not part of them.
UniProt Q6QI06: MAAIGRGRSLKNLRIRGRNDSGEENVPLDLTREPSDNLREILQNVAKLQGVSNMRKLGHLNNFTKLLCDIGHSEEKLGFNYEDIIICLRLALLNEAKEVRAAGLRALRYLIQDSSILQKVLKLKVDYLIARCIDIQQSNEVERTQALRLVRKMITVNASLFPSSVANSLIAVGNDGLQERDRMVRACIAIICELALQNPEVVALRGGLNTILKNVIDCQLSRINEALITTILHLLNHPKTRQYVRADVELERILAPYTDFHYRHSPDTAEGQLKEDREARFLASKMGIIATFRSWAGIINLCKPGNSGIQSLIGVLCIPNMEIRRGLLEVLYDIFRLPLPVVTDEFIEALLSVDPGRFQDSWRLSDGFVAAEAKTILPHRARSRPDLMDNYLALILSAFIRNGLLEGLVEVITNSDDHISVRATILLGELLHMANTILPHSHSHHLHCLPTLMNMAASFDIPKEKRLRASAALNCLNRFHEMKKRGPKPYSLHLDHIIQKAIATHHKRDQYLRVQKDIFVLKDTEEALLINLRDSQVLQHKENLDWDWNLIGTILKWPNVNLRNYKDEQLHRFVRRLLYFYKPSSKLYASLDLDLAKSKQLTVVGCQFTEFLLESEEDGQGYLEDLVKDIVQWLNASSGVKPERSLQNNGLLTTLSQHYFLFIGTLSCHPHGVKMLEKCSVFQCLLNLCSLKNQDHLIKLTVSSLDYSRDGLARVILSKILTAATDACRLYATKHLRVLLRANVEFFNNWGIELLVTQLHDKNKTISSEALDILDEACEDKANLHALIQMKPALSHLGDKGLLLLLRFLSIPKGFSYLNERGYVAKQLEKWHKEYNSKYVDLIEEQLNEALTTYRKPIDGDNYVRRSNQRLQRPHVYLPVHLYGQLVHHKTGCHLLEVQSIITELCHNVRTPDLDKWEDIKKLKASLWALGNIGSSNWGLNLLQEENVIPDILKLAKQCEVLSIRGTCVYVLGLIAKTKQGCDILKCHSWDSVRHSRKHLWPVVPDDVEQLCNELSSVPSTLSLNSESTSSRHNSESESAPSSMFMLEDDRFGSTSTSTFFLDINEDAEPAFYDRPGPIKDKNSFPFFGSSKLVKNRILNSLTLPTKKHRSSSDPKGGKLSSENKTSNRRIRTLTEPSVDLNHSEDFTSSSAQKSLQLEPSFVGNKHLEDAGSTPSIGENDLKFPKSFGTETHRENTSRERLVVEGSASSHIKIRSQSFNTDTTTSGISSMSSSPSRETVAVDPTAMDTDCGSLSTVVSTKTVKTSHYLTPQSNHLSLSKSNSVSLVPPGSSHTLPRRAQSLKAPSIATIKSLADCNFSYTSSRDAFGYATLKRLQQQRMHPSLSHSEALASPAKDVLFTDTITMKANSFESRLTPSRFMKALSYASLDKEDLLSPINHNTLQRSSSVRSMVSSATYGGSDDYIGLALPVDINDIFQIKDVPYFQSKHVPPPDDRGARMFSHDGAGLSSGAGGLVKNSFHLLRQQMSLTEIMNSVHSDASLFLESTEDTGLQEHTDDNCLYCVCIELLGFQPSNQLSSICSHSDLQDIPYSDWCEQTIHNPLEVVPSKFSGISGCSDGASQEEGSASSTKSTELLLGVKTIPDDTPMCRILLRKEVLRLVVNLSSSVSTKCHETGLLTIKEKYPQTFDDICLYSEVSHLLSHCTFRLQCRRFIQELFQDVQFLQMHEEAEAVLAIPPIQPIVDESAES
UniProt Q8VBV4: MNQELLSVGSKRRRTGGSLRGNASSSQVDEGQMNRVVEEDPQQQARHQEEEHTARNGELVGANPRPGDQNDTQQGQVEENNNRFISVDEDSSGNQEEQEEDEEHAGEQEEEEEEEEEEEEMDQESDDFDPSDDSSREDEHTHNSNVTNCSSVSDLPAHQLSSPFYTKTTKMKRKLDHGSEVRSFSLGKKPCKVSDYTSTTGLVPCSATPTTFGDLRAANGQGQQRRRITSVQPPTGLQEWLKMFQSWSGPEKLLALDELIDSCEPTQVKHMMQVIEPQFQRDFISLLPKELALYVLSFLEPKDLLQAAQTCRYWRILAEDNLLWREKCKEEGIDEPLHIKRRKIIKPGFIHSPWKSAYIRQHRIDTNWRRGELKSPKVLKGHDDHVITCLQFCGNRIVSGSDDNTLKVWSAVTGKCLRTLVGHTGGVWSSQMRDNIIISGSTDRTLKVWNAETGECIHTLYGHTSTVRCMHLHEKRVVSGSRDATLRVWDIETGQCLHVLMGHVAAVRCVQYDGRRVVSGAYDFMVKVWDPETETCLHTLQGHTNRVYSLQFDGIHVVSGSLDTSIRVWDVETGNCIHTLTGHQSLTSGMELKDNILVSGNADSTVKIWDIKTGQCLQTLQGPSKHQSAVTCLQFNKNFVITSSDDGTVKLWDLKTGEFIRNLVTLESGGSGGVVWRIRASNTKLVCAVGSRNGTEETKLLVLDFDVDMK

Biological target: Rictor (mouse (endogenous in NPSCs)) (UniProt Q6QI06)
Experiment: co-IP; Rictor immunoprecipitates from RIPA-like extracts (2 mg) of Parp3+/+ and Parp3-/- NPSC, sicontrol or siFbxw7, blotted for Fbxw7; cells transfected with HA-Ubiquitin and treated with MG132 (1 uM, 6 h), or basal conditions; washes with 250 mM and 150 mM NaCl, 0.1% NP40

- binding: binds
Substance: Fbxw7 (from UniProt Q8VBV4 1-710)
